Assay [1] has as its target PcfG-His (relaxase PcfG with a C-terminal deca-histidine tag) (Enterococcus faecalis (plasmid pCF10)) (UniProt Q7X5P3). Kind of assay: SEC; refolded PcfG-His on Superdex 200 10/300 GL Increase; both purified. On the technique in general: SEC sorts molecules by how far they enter the pores of the column.
The target of assay [2] is T1, GST-PcfF1-54 (Enterococcus faecalis (plasmid pCF10)) (UniProt Q5G3N6).
T1 sequence: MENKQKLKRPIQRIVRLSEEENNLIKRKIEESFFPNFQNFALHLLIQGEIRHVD
Kind of assay: pull-down; 2 nmol GST-PcfF or variant immobilised on glutathione-agarose beads, 4 nmol PcfG-His as prey; 20 mM Tris/HCl pH 7.5, 200 mM NaCl; 5 x 10 CV washes, eluted with 30 mM reduced glutathione; SDS-PAGE, Coomassie; both purified.

These are yes or no findings as the source states them, for the method shown. Where a sequence is shown, tags or fusion partners need not be part of it.

For one molecule, binding results are on record in publication PMC6514445, “Enterococcal PcfF Is a Ribbon-Helix-Helix Protein That Recruits the Relaxase PcfG Through Binding and Bending of the oriT Sequence” (Frontiers in Microbiology, 2019).

B1: PcfG-His (relaxase PcfG with a C-terminal deca-histidine tag) (enzyme, UniProt Q7X5P3 1-561)
chain: MVYTKHFVIHTFDKLNNACSYIENAEKTEVTNDNPSEHLEHLFQYIVNDDKTYMKKLVSGHGIVDPTNPYEEFKLTKLQAAIQRKIGYTFDPKSERLLPPTLTELEKGNAVLAHHLIQSFSPEDDLTPEKIHEIGYNTVMELTGGKYEFVIATHVDKEHLHNHIIFSSTNLKTGKAFRWQKGTKRVFEQISDKIAAKEGAKIIEKSPKQTHTKYTKWQTESIYKQKIKSRLDFLLEQSSSINDFLEKAEALNLSADFSNKWTTYRLLDEPQIKNTRSRSLSKSDPTRYNYEKIIERLKENKNVLTVEECVKRYEEKNEQEKNNFDYQFTIEPWQLSHKTERGYYINIDYGYGNSGKLFVGGYKVDPLDNGNYNIYIKRNEYFYFMSDKDATKSKYLTGASLIKQLRLYNGQTPLKREPVMQTIDELVSAINFLAANEIEDTRQLKLLEEKLEVAFLEAEKTLETLDEKMLELHQLSNLLLENELQGDPELIQKKLKTLLPDATLAEFSYEDVRGEIEAIKTSQTLLESKLERTRNEINQLHEIQAVQEKEPEKQTDIKPKL
As for B1, the binding entry in assay [1] is “no binding”; in assay [2] it was “no binding (tested: 4 nmol PcfG-His, 2 nmol GST-PcfF variant)”.
